Values of other authors in patent US8329743B2, “Compositions and its use in treating obesity or inducing weight loss” (Sami Labs Limited, priority 2011, dated 2012).
For at least one compound, name, drawing or mass did not settle the structure. Some of these results come from one statement about several compounds together.

Tests used:
[1] = test system: methicillin-resistant Staphylococcus aureus; details: cited from earlier work
[2] = test system: azoxymethane (AOM)-induced colonic aberrant crypt foci (ACF); details: rats, garcinol diet 0.01% and 0.05%, compared to control animals; cited from earlier work

In the case of `C=C(C)[C@@H](CC=C(C)C)C[C@@]12C[C@@H](CC=C(C)C)C(C)(C)[C@@](CC=C(C)C)(C(=O)C(C(=O)c3ccc(O)c(O)c3)=C1O)C2=O` [Garcinol], the minimum inhibitory concentration [1] is listed as 3.1-12.5 micrograms/ml and the “development of AOM-induced colonic aberrant crypt foci (ACF)” value [2] is listed as “significantly reduced development”.
For `CC(C)=CC[C@H]1C[C@@]23C[C@@H](CC=C(C)C)C(C)(C)[C@@](CC=C(C)C)(C(=O)C(C(=O)c4ccc(O)c(O)c4)=C2OC1(C)C)C3=O` [isogarcinol], the minimum inhibitory concentration [1] is listed as 3.1-12.5 micrograms/ml.
